# This is one part of the list. Single values are uncertain, as repeats are few or missing.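 The apoptosis fraction was the count of cleaved-PARP antibody-stained nuclei relative to all DNA-stained nuclei, imaged in 1,536-well plates. Screening doses were set so most cells survived, and baseline and induced cleaved-PARP levels vary greatly across cell lines.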
# Test system: WM3619
# Experiment: cleaved PARP positive nuclei fraction relative to DMSO control; melanoma cells; higher = more apoptosis
# Conditions: library dose: low library concentration; 72 h
row,Structure (SMILES),cleaved PARP positive nuclei fraction [%]
1,"C[C@]12O[C@H](C[C@]1(O)CO)n1c3ccccc3c3c4c(c5c6ccccc6n2c5c31)CNC4=O [Lestaurtinib] + O=C(CCCCCCC(=O)Nc1ccccc1)NO [vorinostat] (first compound 0.004 µM, partner dose 0.08 µM)",110
2,"CCCCCCCCc1ccc(CCC(N)(CO)CO)cc1 [fingolimod] + N.N.[Cl][Pt][Cl] [cisplatin] (first compound 2 µM, partner dose 1.6 µM)",122
3,"Cc1ccc(Nc2nccc(N(C)c3ccc4c(C)n(C)nc4c3)n2)cc1S(N)(=O)=O [Pazopanib] + C/C(O)=C(\C#N)C(=O)Nc1cc(Br)ccc1Br [LFM-A13] (first compound 0.4 µM, partner dose 2 µM)",289
4,"C[C@]12O[C@H](C[C@]1(O)CO)n1c3ccccc3c3c4c(c5c6ccccc6n2c5c31)CNC4=O [Lestaurtinib] + O=C(Nc1cccc(Cl)c1)Nc1ncc(CCNc2ncnc3ccsc23)s1 [SNS314] (first compound 0.004 µM, partner dose 0.0008 µM)",75.5
5,"C[C@]12O[C@H](C[C@]1(O)CO)n1c3ccccc3c3c4c(c5c6ccccc6n2c5c31)CNC4=O [Lestaurtinib] + O=C(Oc1ccc([N+](=O)[O-])cc1)N1CCC(C(O)(c2ccc3c(c2)OCO3)c2ccc3c(c2)OCO3)CC1 [JZL184] (first compound 0.004 µM, partner dose 1 µM)",82
6,"Cn1cc(C2=C(c3cn(C4CCN(Cc5ccccn5)CC4)c4ccccc34)C(=O)NC2=O)c2ccccc21 [Enzastaurin] + CC(=O)c1c(C)c2cnc(Nc3ccc(N4CCNCC4)cn3)nc2n(C2CCCC2)c1=O [palbociclib] (first compound 0.8 µM, partner dose 0.04 µM)",90.4
7,"C[As](C)SC[C@H](NC(=O)CC[C@H](N)C(=O)O)C(=O)NCC(=O)O [Darinaparsin] + Cn1nnc2c(C(N)=O)ncn2c1=O [temozolomide] (first compound 0.4 µM, partner dose 2 µM)",96.5
8,"Cn1c(=O)n(-c2ccc(C(C)(C)C#N)cc2)c2c3cc(-c4cnc5ccccc5c4)ccc3ncc21 + C/C(O)=C(\C#N)C(=O)Nc1cc(Br)ccc1Br [LFM-A13] (first compound 0.004 µM, partner dose 2 µM)",113
9,"CC(C)(C)c1cnc(CSc2cnc(NC(=O)C3CCNCC3)s2)o1 + O=C(Oc1ccc([N+](=O)[O-])cc1)N1CCC(C(O)(c2ccc3c(c2)OCO3)c2ccc3c(c2)OCO3)CC1 [JZL184] (first compound 0.01 µM, partner dose 1 µM)",80.9
10,"N.N.[Cl][Pt][Cl] [cisplatin] + COc1ccc2c(c1)CCC1C2CCC2(C)C(NCCCCCCN3C(=O)C=CC3=O)CCC12 [U73122] (first compound 1.6 µM, partner dose 0.4 µM)",116
11,"Cc1cc(SCc2sc(-c3ccc(C(F)(F)F)c(F)c3)nc2C)ccc1OCC(=O)O + Oc1cc(-c2nc(-c3ccccc3)[nH]c2-c2ccncc2)ccc1Cl [L779450] (first compound 2 µM, partner dose 0.2 µM)",151
12,"CC1(C)CCC(c2ccc(Cl)cc2)=C(CN2CCN(c3ccc(C(=O)NS(=O)(=O)c4ccc(N[C@H](CCN5CCOCC5)CSc5ccccc5)c(S(=O)(=O)C(F)(F)F)c4)cc3)CC2)C1 + O=C(Oc1ccc([N+](=O)[O-])cc1)N1CCC(C(O)(c2ccc3c(c2)OCO3)c2ccc3c(c2)OCO3)CC1 [JZL184] (first compound 0.4 µM, partner dose 1 µM)",112
13,"CS(=O)(=O)c1ccc(C(=O)Nc2ccc(Cl)c(-c3ccccn3)c2)c(Cl)c1 [vismodegib] + N.N.[Cl][Pt][Cl] [cisplatin] (first compound 1 µM, partner dose 1.6 µM)",185
14,"O=C(/C=C/c1cccnc1)NCCCCC1CCN(C(=O)c2ccccc2)CC1 + C/C(O)=C(\C#N)C(=O)Nc1cc(Br)ccc1Br [LFM-A13] (first compound 0.01 µM, partner dose 2 µM)",141
15,"C[As](C)SC[C@H](NC(=O)CC[C@H](N)C(=O)O)C(=O)NCC(=O)O [Darinaparsin] + Cn1cc(/C=C2\C(=O)Nc3cccnc32)c2ccccc21 [GW441756] (first compound 0.4 µM, partner dose 0.4 µM)",71.2
